# Values from PubChem BioAssay AID1508597 (Cure First, 2020)
# Aim: 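Survival screen with siRNA in ovarian cancer cells derived from patients, with or without rucaparib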 (primary screen)
# Cell system: human ovarian carcinoma lines grown from tumours: OCI-P5x (papillary serous) and OCI-C5x (clear cell)
# Reagents: siRNA pool against human genes, 1.25 pmol siRNA per well
# Duration: 72 h or 96 h, depending on the cell culture
# Conditions: rucaparib 20 µM (about IC30) or vehicle, present until read-out
# Rucaparib or vehicle: Rucaparib
# Cell line: OCI-C5x (clear cell)
# Measured: 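ATP luminescence measured at 72 or 96 h according to the culture, then normalised and expressed as percent viability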
# Reading the numbers: viability, normalised: higher = more viable cells remaining
# Rule for the call: 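Active when normalised viability falls below 80 percent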
# Meaning of the calls: active = viability under 80%; inactive = viability 80% or more
# This is a random part of the about 2,100 reagents, in one setting of the screen. 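Calls flag viability under 80% in either arm, not effects specific to rucaparib; the reference for percent is not stated.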 A reagent listed more than once was tested more than once; the source does not tell the runs apart. The record does not give: the 100% reference.
target gene,technical replicate,"viability, normalised (%)",Call
BUB1 (GeneID 699),1,53.9,active
BUB1 (GeneID 699),1,51.7,active
BUB1 (GeneID 699),2,51.9,active
BUB1 (GeneID 699),2,46.6,active
BUB1 (GeneID 699),3,54.1,active
BUB1 (GeneID 699),3,62.6,active
FAM131C (GeneID 348487),1,52.8,active
FAM131C (GeneID 348487),2,67.6,active
FAM131C (GeneID 348487),3,66.3,active
HDAC7 (GeneID 51564),1,41.3,active
HDAC7 (GeneID 51564),2,43.2,active
HDAC7 (GeneID 51564),3,49.5,active
GRK6 (GeneID 2870),1,51.9,active
GRK6 (GeneID 2870),2,65.1,active
GRK6 (GeneID 2870),3,72.4,active
HIPK2 (GeneID 28996),1,72,active
HIPK2 (GeneID 28996),2,82.5,inactive
HIPK2 (GeneID 28996),3,65.4,active
ING5 (GeneID 84289),1,55.1,active
ING5 (GeneID 84289),2,40.9,active
ING5 (GeneID 84289),3,43.8,active
XRCC3 (GeneID 7517),1,56.3,active
XRCC3 (GeneID 7517),2,66.5,active
XRCC3 (GeneID 7517),3,58.2,active
MAPK12 (GeneID 6300),1,49.6,active
MAPK12 (GeneID 6300),2,66.8,active
MAPK12 (GeneID 6300),3,38,active
RPS6KB1 (GeneID 6198),1,35.4,active
RPS6KB1 (GeneID 6198),1,38.6,active
RPS6KB1 (GeneID 6198),2,57.8,active
RPS6KB1 (GeneID 6198),2,38.1,active
RPS6KB1 (GeneID 6198),3,43.3,active
RPS6KB1 (GeneID 6198),3,37.8,active

Next part, starting with the last 3 of the part before.
target gene,technical replicate,"viability, normalised (%)",Call
RPS6KB1 (GeneID 6198),2,38.1,active
RPS6KB1 (GeneID 6198),3,43.3,active
RPS6KB1 (GeneID 6198),3,37.8,active
TONSL (GeneID 4796),1,41.7,active
TONSL (GeneID 4796),2,56.7,active
TONSL (GeneID 4796),3,48.4,active
CHUK (GeneID 1147),1,48.1,active
CHUK (GeneID 1147),2,49.7,active
CHUK (GeneID 1147),3,56.2,active
OXSM (GeneID 54995),1,56.4,active
OXSM (GeneID 54995),2,57.3,active
OXSM (GeneID 54995),3,60,active
HMGB2 (GeneID 3148),1,76.7,active
HMGB2 (GeneID 3148),1,57.8,active
HMGB2 (GeneID 3148),2,49.5,active
HMGB2 (GeneID 3148),2,60.5,active
HMGB2 (GeneID 3148),3,52.6,active
HMGB2 (GeneID 3148),3,67.5,active
SGK3 (GeneID 23678),1,46.7,active
SGK3 (GeneID 23678),2,59.6,active
SGK3 (GeneID 23678),3,69.5,active
PRKCH (GeneID 5583),1,45.4,active
PRKCH (GeneID 5583),2,55.8,active
PRKCH (GeneID 5583),3,61.2,active
RFK (GeneID 55312),1,44.7,active
RFK (GeneID 55312),2,44.4,active
RFK (GeneID 55312),3,56.4,active
